Data on 1 substance can be found in paper PMC10060430.

Protein sequences, listed by entry. Tags and fused reporters are not part of them.
UniProt P49588: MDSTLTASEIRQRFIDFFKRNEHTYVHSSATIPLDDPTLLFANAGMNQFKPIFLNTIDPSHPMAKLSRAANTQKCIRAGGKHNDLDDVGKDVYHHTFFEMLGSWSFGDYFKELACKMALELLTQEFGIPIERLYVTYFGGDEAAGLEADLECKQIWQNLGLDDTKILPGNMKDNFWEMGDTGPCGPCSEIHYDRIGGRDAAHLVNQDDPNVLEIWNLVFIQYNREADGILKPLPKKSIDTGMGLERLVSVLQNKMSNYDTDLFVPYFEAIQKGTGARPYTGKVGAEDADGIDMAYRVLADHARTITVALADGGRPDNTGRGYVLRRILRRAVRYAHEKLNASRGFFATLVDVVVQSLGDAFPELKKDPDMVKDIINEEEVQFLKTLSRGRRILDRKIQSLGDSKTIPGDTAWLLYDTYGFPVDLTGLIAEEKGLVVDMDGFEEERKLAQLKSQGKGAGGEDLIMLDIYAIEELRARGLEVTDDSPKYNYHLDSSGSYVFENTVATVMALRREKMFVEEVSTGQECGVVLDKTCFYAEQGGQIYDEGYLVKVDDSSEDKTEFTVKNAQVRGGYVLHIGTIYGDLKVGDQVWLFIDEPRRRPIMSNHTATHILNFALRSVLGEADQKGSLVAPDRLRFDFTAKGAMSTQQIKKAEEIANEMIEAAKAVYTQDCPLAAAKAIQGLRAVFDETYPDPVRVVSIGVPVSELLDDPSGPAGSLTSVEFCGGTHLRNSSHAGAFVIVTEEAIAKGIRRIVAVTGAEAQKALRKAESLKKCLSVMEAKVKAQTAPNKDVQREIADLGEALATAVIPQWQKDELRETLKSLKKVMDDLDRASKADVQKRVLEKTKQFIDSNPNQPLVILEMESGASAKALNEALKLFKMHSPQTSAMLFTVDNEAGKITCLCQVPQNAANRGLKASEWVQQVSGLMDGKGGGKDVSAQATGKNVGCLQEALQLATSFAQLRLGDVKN
UniProt P09874: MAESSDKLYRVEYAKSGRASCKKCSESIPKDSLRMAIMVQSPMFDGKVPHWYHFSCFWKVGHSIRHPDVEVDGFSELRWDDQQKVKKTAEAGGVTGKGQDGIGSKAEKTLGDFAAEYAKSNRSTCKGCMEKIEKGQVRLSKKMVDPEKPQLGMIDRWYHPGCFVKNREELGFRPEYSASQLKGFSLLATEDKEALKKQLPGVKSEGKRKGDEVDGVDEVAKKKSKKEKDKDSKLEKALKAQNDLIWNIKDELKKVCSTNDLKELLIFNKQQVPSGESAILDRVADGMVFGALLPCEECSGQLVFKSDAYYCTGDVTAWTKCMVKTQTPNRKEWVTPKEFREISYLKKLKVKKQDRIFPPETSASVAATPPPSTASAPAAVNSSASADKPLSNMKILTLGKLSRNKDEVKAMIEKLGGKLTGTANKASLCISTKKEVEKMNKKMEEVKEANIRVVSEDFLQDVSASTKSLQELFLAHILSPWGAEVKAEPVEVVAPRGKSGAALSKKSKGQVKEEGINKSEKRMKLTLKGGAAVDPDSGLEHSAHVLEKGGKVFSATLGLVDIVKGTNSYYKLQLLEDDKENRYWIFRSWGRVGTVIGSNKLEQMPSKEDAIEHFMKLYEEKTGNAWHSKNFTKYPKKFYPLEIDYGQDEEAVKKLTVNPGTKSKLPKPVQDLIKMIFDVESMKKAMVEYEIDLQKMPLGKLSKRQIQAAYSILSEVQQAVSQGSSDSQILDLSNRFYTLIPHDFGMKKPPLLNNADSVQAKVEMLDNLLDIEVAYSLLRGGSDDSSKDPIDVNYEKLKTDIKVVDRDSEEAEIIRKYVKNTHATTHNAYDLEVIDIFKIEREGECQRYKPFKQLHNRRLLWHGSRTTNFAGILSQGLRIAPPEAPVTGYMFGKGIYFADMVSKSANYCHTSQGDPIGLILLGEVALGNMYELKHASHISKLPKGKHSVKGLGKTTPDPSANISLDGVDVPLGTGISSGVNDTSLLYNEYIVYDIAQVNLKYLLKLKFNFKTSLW

These are yes or no findings as the source states them, for the method shown. In cells and extracts the contact can be indirect. These calls come from enrichment with a bait or labelling near it, and not all partners need be listed.

This experiment has as its target AARS1-Flag (alanyl-tRNA synthetase) (human) (UniProt P49588). As to the kind of experiment: affinity purification with mass spectrometry; AARS1-Flag expressed in Hutu80 cells; lysis in 0.5% NP-40 buffer; anti-FLAG M2 magnetic beads 3 h at 4 °C; on-bead tryptic digestion, LC-MS/MS (called tandem affinity purification in the results).

Turning to “PARP1 (poly-ADP-ribose polymerase 1), endogenous in Hutu80 cells (from UniProt P09874 1-1014) (enzyme)”, the binding result is recorded as “binds”.
